At least one compound was matched to its structure with a doubt left.
Experiment: Solute release from bonded HPC gel membranes (modified HPLC system)
Type: physicochemical
Details: HPC gel membrane 0.66 mm
Description: Solute release tests were conducted in the same manner as for PNIPA gels, as described in Example 1. The solute release experiments were designed to model the actual conditions of catheter use, which entail therapeutic solute loading at room temperature (25° C.), insertion of the catheter into the patient at 37° C., and temperature induced enhanced solute release when the catheter is placed at a target location in the body. While the experimental design was generally successful in modeling the actual use of catheter, heat lost to the experimental apparatus tubing reduced the 37° C. test temperature to 33° C. Because the transition temperature of HPC is fairly sharp (in this case, 43° C.), the reduction of test temperature from 37° C. to 33° C. had little impact on the test results.
Solute release experiments were conducted under four constant temperature conditions and three step change conditions. […] Thus, test temperatures below and above the transition temperature of HPC (43° C.) were used. […]

In the case of `C[C@]12CC[C@@H]3c4ccc(O)cc4CC[C@H]3[C@@H]1CC[C@@H]2O` [estradiol, reference compound], the “solute released before the temperature change” value (first two minutes at 24° C.) is reported as 18%, the “solute released within the first 7 minutes of the test” value (isothermal 24° C.) is reported as “about 40%” and the “solute released in the five minutes immediately after the temperature change” value (step 24° C. to 54° C.) is reported as 59%. The “solute released within the first 7 minutes of the test” value (step 24° C. to 54° C. after two minutes) was “about 77%”.
